Each structure is given as a SMILES string. The list shows a part of the results.

This assay concerns T1, CTL2-GFP (C. trachomatis L2/434/Bu, GFP-expressing).
T1 construct: L2/434/Bu, GFP-expressing
On the set-up: species or system HeLa; Intracellular C. trachomatis growth in HeLa cells, bulk GFP fluorescence relative to DMSO. The following applies: bulk GFP, single well; 28.5 h, 10 µM; inhibitor.
`O=S(=O)(Nc1ccc2ncccc2c1)c1ccc(OC(F)(F)F)cc1` [CBK045339]: the “% of control remaining” value came to 104.07%.
Next, `Cc1nn(CCNC(=O)C2CC(=O)N(CC(C)C)C2)c(C)c1C` (stereo not drawn) [CBK281630]: 142.917%; `COc1cccc(/C=C2/SC(=S)N(C)C2=O)c1OCCCOc1ccc(C)cc1C` [CBK264446]: 123.865%.
In the case of `CN(CC1CCN(C(=O)OC(C)(C)C)CC1)c1ccnc(-c2ccncc2)n1` [CBK166064] it was 126.798%.
Next, `CN1CCc2nc(SCC(=O)NC(C)(C)C)c(C#N)cc2C1` [CBK267445]: 139.254%; `CC(C)NC(=O)N[C@H]1CCN2C(=O)c3cc(-c4ccccc4F)ccc3NC(=O)[C@H]12` [CBK289335]: 130.44%.
As to `N#Cc1cccnc1N1CCC(NC(=O)c2cccnc2)CC1` [CBK304283], the “% of control remaining” value is listed as 83.1417%.
Next, `Cc1cccn2cc(C(=O)NC(C)CN3CCCC3)nc12` (stereo not drawn) [CBK281714]: 97.3494%; `Cc1nnnn1C(Cc1cccc(F)c1)C(=O)N1CC(C)CC(C)C1` (stereo not drawn) [CBK298262]: 146.437%; `Cc1ccc(C2c3c(O)n[nH]c3CC(C)(O)C2C(=O)OCc2ccccc2)cc1` (stereo not drawn) [CBK269417]: 154.359%.
Next, `CCOc1ccc(-c2ccc(C#N)c(=S)[nH]2)cc1` [CBK288470]: 149.591%; `COc1cc2nc(N3CCC4(CCN(C(=O)C(c5ccccc5)C(C)C)C4)C3)nc(N)c2cc1OC` (stereo not drawn) [CBK160790]: 56.7354%; `CCOC(=O)NC(Nc1cccc(C)n1)(C(F)(F)F)C(F)(F)F` [CBK261343]: 115.553%.
In the case of `O=C(CCn1c(C(F)F)cc2cccnc21)N1CCCCCC1` [CBK284983] it was 112.98%; in that of `FC(F)(F)c1ccnc(OCCN2CCNCC2)n1` [CBK113297], 150.803%.
Turning to `CN(C)Cc1ccccc1-n1ncc(CN2CCS(=O)(=O)CC2)n1` [CBK112877], the “% of control remaining” value is given as 96.6533%.
Consider `Cc1nc2ccc(C(=O)N3CCN(C4CCCCC4)C(=O)C3)cc2[nH]1` [CBK282131], for which the “% of control remaining” value is 139.049%.
`Oc1ccc(/C=N/c2ccc(O)c(-c3nc4ccccc4s3)c2)cc1O` [CBK262473]: the “% of control remaining” value amounted to 125.294%.
Turning to `CC1Cc2ccccc2N1C(=O)C1C2C=CC(O2)C1C(=O)O` (stereo not drawn) [CBK286891], the “% of control remaining” value is reported as 122.147%.
In the case of `CC(=O)NS(=O)(=O)c1ccc(NC(=N)Nc2nc(C)cc(C)n2)cc1` [CBK263117C] it was 94.7039%; in that of `COc1cc(C(=O)N2CCN(C(=O)c3ccco3)CC2)cc(OC)c1OC` [CBK144476], 112.855%; in that of `CCOC(=O)C1(C2CCCCC2)CCN(C(=O)/C=C/c2ccc3c(c2)OCO3)CC1` [CBK136924], 84.5348%.
Next, `CC1(C#N)CCCN(C(=O)NC2CCN(Cc3cccc(O)c3)CC2)C1` (stereo not drawn) [CBK306787]: 121.212%; `Cc1ccc(S(=O)(=O)N(CC(=O)O)c2ccc(C(C)C)cc2)cc1` [CBK287116]: 111.978%.
In the case of `CCOC(=O)C1(C2CCCCC2)CCN(C(=O)C2CCN(C)CC2)CC1` [CBK136948] it was 96.0089%.
Regarding `COc1ccc(CNC(=O)c2cc(O)nc3ccccc23)cc1OC` [CBK296763], the “% of control remaining” value was 151.036%.
Turning to `Cc1cc(C)c2c(n1)OC(N1CCOCC1)(C(F)(F)F)CC2=O` (stereo not drawn) [CBK267301], the “% of control remaining” value is recorded as 153.467%.
In the case of `Cc1nc2nc(N)nn2c(C)c1CCC(=O)NCc1ccccc1` [CBK304986] it was 135.412%; in that of `CCN(CCN(C)C)Cc1ccc(F)cc1F` [CBK261877], 121.267%; in that of `Oc1ccc2ccccc2c1/C=N/c1ccc(-c2cc(-c3ccc(/N=C/c4c(O)ccc5ccccc45)cc3)ncn2)cc1` [CBK261621], 112.082%.
Next, `COCCc1nsc(N2CCC(Oc3cccnc3N(C)C)C2)n1` (stereo not drawn) [CBK305418]: 84.2626%; `O=C(O)c1ccc(CNC(=S)Nc2ccc([N+](=O)[O-])cc2)cc1` [CBK267037]: 157.348%; `C[C@]12CN(C3CCSC3)C[C@H]1C(=O)Nc1ccccc1C(=O)N2` (stereo partly drawn) [CBK284788]: 138.212%.
In the case of `Clc1cncc(N2CCCC2)n1` [CBK083595] it was 84.0674%; in that of `COc1ccc(-c2nc(NC(=O)c3ccccn3)cnc2-c2cccc(C(F)(F)F)c2)cc1` [CBK036785], 129.926%.
For the compound `CC(C)CNS(=O)(=O)c1ccc(N2CCCC2=O)cc1` [CBK304981], the “% of control remaining” value is reported as 90.2787%.
With `Cc1ccsc1C(=O)N1CCC(n2cc(C(C)(C)O)nn2)CC1` [CBK307069], the “% of control remaining” value is given as 125.623%.
Next, `O=C(O)CSc1nc2ccc(NC(=O)COc3ccc(Cl)cc3)cc2s1` [CBK299773]: 194.767%; `CSc1nc(C#N)c(N)c(SC2C=CCCC2)n1` (stereo not drawn) [CBK021817]: 139.837%.
In the case of `CC(=O)N(C)c1ncc(Br)cc1C(=O)NCc1ccc2c(c1)CCO2` [CBK076544] it was 109.925%.
For the compound `Cc1ccc(Cl)c(OC(C)C(=O)NCC2(N3CCOCC3)CCSC2)c1` (stereo not drawn) [CBK305681], the “% of control remaining” value amounted to 118.153%.
Next, `COc1ccc(CNc2ccc(C3c4ccsc4CCN3C(C)=O)cc2)cc1` (stereo not drawn) [CBK286444]: 123.971%; `CC12CCC(C(=O)O)(c3nc4cc([N+](=O)[O-])ccc4nc31)C2(C)C` (stereo not drawn) [CBK266577K]: 96.4982%; `COc1ccc(-c2noc(CSc3nnc(-c4cccs4)n3-c3ccccc3)n2)cc1` [CBK268390]: 90.1737%.
Next, `Cc1cc(C)n(Cc2cccc(C(=O)NC(C)Cc3ccccn3)c2)n1` (stereo not drawn) [CBK281449]: 95.6844%.
Turning to `CC(C)c1ccc(-c2csc(Nc3cccc(C(=O)O)c3)n2)cc1` [CBK299880], the “% of control remaining” value worked out at 111.045%.
In the case of `CC1CCN(S(=O)(=O)c2ccc3c(c2)oc(=O)c2cc(S(=O)(=O)N4CCC(C)CC4)ccc23)CC1` [CBK266314] it was 196.882%; in that of `COc1ccc(CNC(=O)c2cnc(-c3ccc(F)cc3)c(-c3ccc(C(C)=O)s3)c2)cc1` [CBK036577], 151.054%; in that of `O=S(=O)(Nc1nc2c(s1)CCCC2)c1cc(Cl)ccc1Cl` [CBK096578], 106.902%.
In the case of `CCCC(=O)c1ccc(S(=O)(=O)N2CCN(CCCOC3CCCCO3)CC2)cc1` (stereo not drawn) [CBK062858] it was 70.2302%; in that of `CC(=O)Nc1cccc(CN(C)C(CCO)c2ccccc2)c1` (stereo not drawn) [CBK305127], 131.287%.
In the case of `O=C(O)c1cccc(NS(=O)(=O)c2ccc3c(c2)CN(C(=O)C(F)(F)F)CC3)c1` [CBK155709], the “% of control remaining” value came out at 134.847%.
In the case of `O=C(Nc1ccncc1)c1c(O)c2ccccc2[nH]c1=O` [CBK288017] it was 121.134%; in that of `COc1ccc2[nH]cc(CCNC(=O)N3CCN(CCN4CCOCC4)CC3)c2c1` [CBK155818], 112.606%.
Next, `CC(CNC(=O)c1cncc(Br)c1)NC(=O)c1cncc(Br)c1` (stereo not drawn) [CBK262040]: 106.084%; `CC(=O)Nc1ccc(OCC(O)Cn2c(CO)nc3ccccc32)cc1` (stereo not drawn) [CBK304549]: 118.64%; `CCN(CC)C(=O)Cc1cc(C(=O)O)c2ccccc2n1` [CBK286942]: 94.8179%.
Next, `Cc1nc(-c2ccc(N3CC(C(N)=O)CCC3C)nc2)[nH]c(=O)c1C` (stereo not drawn) [CBK306463]: 82.1227%; `CC1(C)CC(N(Cc2ccc(F)cc2)Cc2c[nH]cn2)CC(C)(C)N1` [CBK282540]: 126.602%; `CC(=O)c1cccc(NS(=O)(=O)c2ccc(OC(F)(F)F)cc2)c1` [CBK043606]: 121.837%.
On to `O=C1CC(c2ccccc2)c2snc(C(=O)O)c2N1` (stereo not drawn) [CBK287111], for which the “% of control remaining” value is reported as 115.845%.
Next, `O=C(CN(c1cccc(Cl)c1)S(=O)(=O)c1ccccc1)NN=C1CCCCCC1` [CBK262519]: 120.1%.
In the case of `Cc1ccc(C(=O)N2C[C@H]3NC(=O)c4ccccc4C(=O)[C@@]3(C)C2)cc1` [CBK285315] it was 131.749%; in that of `CC(=O)N1CCN(C(C(=O)O)c2c[nH]c3cc(NC(=O)c4ccccc4)ccc23)CC1` (stereo not drawn) [CBK286680], 153.025%; in that of `CCn1cc(C(=O)N2CCCC2c2nccs2)c(=O)c2ccc(C)nc21` (stereo not drawn) [CBK307171], 141.234%.
Turning to `O=P(O)(CCc1ccncc1)CN1CCOCC1` [CBK262317], the “% of control remaining” value was 118.333%.
In the case of `Cc1ccc(S(=O)(=O)CC(CN2CCOCC2)N2CCOCC2)cc1` (stereo not drawn) [CBK264590] it was 100%.
Next, `FC(F)(F)c1ccc(-c2c[nH]c([C@@H]3COCCN3Cc3csnn3)n2)cc1` [CBK289318]: 136.066%; `O=C(NCCc1ccsc1)N1CCN(c2ccncc2)CC1` [CBK305595]: 111.629%; `N#C/C(=C\c1ccc(O)cc1)c1nc(-c2ccc3c(c2)OCO3)cs1` [CBK262370]: 100%.
Next, `CCCc1[nH]n(CCc2ccccc2)c(=O)c1Cc1c(Cl)cccc1Cl` [CBK112499]: 90.2257%.
As for `C=CCn1cc(CN2CCc3nc(C)[nH]c(=O)c3C2)c2ccccc21` [CBK282376], the “% of control remaining” value is listed as 141.415%.
`CCN(CC)CCCN1C(=O)CSC1c1ccc2c(c1)OCO2` (stereo not drawn) [CBK263482C]: the “% of control remaining” value stood at 100%.
In the case of `CN1CCN(CCP(=O)(c2ccccc2)c2ccccc2)CC1` [CBK020260] it was 100%.
In the case of `O=C(NCCN1CCOCC1)C1CC2CCC1C2` (stereo not drawn) [CBK026764] it was 116.483%; in that of `CCCC/C=C/c1cn2ccnc2c(NCCc2ccccn2)n1` [CBK066275], 119.503%.
Next, `CCn1c2ccccc2n2c(SCCC(=O)O)nnc12` [CBK267135]: 155.735%; `COc1ccccc1C1(O)CC2CCC(C1)N2` (stereo not drawn) [CBK281369]: 143.073%.

These data come from publication PMC12040169 (PLOS Biology, 2025).
